The values that follow come from publication PMC7575581.

Chains of the proteins cited; added tags and fusions are not shown.
UniProt O75679: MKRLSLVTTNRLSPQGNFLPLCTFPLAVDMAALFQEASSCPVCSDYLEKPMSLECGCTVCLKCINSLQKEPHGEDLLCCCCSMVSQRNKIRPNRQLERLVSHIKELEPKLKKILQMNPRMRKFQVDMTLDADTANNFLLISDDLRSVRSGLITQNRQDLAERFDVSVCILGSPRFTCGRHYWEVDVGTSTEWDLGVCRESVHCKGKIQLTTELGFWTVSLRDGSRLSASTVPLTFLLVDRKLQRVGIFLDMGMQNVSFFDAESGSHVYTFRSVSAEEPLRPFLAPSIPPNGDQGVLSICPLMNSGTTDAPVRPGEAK

These are yes or no findings as the source states them, for the method shown. Binding seen in cells or lysates may run through a third protein. Some binding calls cover weakened binding; strength is not graded here.

For assay [1], the target named is T1, Importin 13 (human (endogenous in human lung cancer cell lines and HBE)) (UniProt O94829).
T1 sequence: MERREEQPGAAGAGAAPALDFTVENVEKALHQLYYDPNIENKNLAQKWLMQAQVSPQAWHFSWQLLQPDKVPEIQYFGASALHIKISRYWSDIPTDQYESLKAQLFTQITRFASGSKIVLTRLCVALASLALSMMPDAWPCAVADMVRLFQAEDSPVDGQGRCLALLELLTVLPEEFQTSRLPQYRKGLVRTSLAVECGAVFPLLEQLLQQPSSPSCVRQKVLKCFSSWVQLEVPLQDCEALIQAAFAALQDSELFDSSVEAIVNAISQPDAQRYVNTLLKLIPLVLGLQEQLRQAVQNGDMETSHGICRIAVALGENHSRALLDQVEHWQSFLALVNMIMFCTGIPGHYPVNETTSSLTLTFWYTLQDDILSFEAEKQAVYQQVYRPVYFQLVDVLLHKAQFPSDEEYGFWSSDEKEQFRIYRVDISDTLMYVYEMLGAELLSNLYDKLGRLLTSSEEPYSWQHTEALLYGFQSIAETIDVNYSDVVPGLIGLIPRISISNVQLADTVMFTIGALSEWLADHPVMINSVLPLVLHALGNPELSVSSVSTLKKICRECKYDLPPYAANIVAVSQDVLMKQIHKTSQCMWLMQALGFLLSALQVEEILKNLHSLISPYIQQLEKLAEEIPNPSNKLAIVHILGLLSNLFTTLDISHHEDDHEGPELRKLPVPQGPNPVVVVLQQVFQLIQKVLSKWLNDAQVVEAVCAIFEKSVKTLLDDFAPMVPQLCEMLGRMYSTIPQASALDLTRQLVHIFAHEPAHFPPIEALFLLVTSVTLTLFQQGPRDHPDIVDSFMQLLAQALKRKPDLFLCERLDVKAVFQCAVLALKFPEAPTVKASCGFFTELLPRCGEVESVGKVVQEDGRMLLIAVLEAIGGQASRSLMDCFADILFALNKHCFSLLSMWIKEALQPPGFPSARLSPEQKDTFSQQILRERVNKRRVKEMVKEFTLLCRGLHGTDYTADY
The assay can be described thus: co-IP; cells transiently transfected with Flag-tagged RFPL3 or truncation mutants, lysed 48 h after transfection; precipitated with anti-IPO13 (endogenous IPO13) or rabbit IgG control; blot with anti-Flag.

Assay [2] addresses T1, Importin 13 (human (endogenous in human lung cancer cell lines and HBE)). The assay is described as follows: condition: only in HBE (normal lung epithelial cell) lysate; co-IP; HBE (normal lung epithelial cell) lysate; polyclonal anti-IPO13 antibody or rabbit IgG overnight at 4 °C, protein A/G agarose beads; blot with anti-RFPL3.
For assay [3] the target is unchanged. The assay is described as follows: co-IP; lung cancer cell lysates; polyclonal anti-IPO13 antibody or rabbit IgG overnight at 4 °C, protein A/G agarose beads 6 h at 4 °C; blot with anti-RFPL3.

“full-length RFPL3-FLAG (1–317) (from UniProt O75679 1-317)”: the binding result in assay [1] is “binds”.
As to RFPL3 (from UniProt O75679 1-317), the results for the binding result in assay [2] and in assay [3] were “no binding” and “binds”, respectively.
